This note sets out measurements from US5130139A, “Reduction or prevention of skin irritation by drugs” (Alza Corporation, priority 1990, dated 1992).

A short description of the data set: in vitro. Particulars: human, skin fibroblasts, ID50 (M). The text has this: The following examples are offered to illustrate the practice of the present invention. It is important to note that this invention is not limited to any particular transdermal device or other form of transdermal delivery, as are commonly known in the art. Nor is this invention limited to a particular formulation. Therefore, the embodiments described herein are merely illustrative and are not intended to limit the scope of the invention in any manner.
Four beta-adrenergic blocking drugs (propranolol, labetalol, pindolol and timolol) were tested for their uptake and their toxicity in human skin fibroblasts.
To estimate the toxicity of the tested compounds, the general procedure of the MTT assay (Swisher et al., Models Dermatol., Maibach and Lowe (eds.), Basel, Karger, vol. 4, pp 131-137, 1989) was used. Cell cultures of fibroblasts were incubated for 16 hours in medium containing a range of concentrations of the drug being tested. […] Absorbance of this solution was measured at 540 nm against a reference wavelength of 660 nm. Results were then expressed as percent of control cultures incubated in the same conditions without drug or agent. […]
The action of various ionophores and amphiphilic amines on the cytotoxicity of propranolol and chloroquine was determined, following the procedures of Example 1. […]

As for `CN1CCC[C@@H]1CCO[C@](C)(c1ccccc1)c1ccc(Cl)cc1` [Clemastine], the CC50 at 16 h amounted to 2.3e-05 M (Drug + Monensin) and 1.9e-05 M (Drug Alone).
